In the supplement of paper PMC10849652:
The other results are listed elsewhere or left out.

Chains of the proteins cited; added tags and fusions are not shown. Lines headed by an entry give the natural chain unless they say otherwise; changes in a name come on top.
UniProt P10746: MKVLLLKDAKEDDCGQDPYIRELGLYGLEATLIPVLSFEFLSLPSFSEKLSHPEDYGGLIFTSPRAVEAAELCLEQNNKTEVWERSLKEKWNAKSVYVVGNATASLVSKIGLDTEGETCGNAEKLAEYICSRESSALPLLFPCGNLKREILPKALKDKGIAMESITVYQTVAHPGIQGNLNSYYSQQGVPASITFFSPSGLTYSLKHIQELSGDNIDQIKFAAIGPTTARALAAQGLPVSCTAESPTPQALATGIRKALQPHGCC
UniProt O95292, whole entry, looked up: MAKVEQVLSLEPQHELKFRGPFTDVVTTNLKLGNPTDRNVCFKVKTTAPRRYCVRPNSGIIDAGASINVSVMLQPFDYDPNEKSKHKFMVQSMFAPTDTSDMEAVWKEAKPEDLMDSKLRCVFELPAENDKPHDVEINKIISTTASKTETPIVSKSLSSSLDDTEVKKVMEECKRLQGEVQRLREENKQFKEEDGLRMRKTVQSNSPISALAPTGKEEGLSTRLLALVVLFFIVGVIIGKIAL
UniProt P50552: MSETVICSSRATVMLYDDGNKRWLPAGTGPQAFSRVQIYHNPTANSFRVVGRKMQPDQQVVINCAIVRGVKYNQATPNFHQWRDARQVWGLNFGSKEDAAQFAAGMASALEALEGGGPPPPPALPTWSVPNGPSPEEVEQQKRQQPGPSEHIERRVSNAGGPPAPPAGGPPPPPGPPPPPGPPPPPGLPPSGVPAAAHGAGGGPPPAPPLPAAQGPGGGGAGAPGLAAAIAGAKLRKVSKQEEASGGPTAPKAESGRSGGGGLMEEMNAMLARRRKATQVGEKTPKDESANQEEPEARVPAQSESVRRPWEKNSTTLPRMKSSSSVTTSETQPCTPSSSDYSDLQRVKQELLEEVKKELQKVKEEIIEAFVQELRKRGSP
UniProt Q8TED0: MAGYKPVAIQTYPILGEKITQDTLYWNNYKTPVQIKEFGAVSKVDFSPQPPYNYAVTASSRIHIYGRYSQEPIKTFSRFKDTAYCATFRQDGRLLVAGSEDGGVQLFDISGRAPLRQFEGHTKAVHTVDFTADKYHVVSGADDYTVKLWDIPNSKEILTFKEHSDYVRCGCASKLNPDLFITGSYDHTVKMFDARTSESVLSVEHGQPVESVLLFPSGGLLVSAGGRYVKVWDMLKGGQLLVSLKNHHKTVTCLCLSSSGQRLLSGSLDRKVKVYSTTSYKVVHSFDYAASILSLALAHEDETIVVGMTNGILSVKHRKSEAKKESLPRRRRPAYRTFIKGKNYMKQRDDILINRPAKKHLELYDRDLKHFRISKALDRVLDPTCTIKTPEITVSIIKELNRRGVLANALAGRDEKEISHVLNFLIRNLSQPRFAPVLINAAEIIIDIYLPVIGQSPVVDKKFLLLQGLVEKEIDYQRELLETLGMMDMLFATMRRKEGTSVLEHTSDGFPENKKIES
UniProt O60763: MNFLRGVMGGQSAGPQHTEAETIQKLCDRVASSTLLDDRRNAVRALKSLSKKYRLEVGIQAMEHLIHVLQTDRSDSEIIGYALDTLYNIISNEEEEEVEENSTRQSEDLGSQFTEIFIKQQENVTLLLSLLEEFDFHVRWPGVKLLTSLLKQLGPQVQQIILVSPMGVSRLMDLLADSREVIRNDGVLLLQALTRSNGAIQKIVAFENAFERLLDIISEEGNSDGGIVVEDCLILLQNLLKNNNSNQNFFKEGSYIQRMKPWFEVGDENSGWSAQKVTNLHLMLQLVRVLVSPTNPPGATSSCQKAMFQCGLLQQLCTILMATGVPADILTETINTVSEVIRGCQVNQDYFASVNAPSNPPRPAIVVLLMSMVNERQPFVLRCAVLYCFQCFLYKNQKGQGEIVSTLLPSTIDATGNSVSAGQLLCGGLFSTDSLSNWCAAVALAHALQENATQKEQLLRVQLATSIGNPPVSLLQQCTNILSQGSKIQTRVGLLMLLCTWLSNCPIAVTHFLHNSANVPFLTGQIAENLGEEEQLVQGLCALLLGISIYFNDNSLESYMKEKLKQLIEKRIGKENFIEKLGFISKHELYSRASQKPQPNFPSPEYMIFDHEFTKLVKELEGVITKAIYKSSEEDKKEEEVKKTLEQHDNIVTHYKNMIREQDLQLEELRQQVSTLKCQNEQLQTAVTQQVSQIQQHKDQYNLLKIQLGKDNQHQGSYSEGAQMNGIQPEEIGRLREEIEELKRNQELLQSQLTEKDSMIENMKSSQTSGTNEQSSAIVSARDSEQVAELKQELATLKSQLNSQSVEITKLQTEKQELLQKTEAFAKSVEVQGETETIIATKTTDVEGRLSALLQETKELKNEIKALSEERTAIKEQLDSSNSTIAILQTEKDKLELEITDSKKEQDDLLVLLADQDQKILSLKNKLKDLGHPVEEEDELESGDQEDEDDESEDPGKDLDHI
UniProt Q9Y3C8: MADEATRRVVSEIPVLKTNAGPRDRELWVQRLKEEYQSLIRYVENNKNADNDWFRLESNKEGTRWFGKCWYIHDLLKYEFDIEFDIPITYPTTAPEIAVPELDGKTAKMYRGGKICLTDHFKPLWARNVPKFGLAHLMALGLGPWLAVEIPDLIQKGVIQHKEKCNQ
UniProt Q92995: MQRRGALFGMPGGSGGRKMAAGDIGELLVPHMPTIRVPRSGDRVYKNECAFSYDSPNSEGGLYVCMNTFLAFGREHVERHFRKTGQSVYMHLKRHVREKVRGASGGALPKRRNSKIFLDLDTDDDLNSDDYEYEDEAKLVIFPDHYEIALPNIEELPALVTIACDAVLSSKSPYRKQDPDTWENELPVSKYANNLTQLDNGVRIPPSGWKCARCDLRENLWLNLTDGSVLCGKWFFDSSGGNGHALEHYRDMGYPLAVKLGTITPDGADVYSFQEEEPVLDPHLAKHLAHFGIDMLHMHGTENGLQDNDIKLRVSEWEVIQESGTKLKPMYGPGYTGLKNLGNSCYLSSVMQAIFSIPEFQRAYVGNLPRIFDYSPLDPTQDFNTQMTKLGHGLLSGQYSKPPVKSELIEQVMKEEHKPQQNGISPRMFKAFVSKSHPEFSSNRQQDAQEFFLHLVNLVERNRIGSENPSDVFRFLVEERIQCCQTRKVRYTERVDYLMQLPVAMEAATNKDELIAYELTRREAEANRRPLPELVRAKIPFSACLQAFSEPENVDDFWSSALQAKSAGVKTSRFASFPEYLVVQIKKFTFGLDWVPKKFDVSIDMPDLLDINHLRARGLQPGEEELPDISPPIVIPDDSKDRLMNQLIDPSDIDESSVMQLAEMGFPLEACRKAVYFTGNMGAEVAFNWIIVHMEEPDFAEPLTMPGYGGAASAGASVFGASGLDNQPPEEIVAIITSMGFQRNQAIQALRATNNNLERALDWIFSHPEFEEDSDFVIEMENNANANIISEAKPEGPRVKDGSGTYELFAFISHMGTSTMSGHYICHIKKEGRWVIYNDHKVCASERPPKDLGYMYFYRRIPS
UniProt A6NIH7: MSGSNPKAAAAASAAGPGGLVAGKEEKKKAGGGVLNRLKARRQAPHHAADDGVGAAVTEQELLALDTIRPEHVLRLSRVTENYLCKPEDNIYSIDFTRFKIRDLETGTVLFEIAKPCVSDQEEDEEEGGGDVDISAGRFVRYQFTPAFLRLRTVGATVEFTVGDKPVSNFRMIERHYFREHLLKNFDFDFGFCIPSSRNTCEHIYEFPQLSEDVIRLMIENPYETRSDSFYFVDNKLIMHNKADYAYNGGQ
UniProt O94874: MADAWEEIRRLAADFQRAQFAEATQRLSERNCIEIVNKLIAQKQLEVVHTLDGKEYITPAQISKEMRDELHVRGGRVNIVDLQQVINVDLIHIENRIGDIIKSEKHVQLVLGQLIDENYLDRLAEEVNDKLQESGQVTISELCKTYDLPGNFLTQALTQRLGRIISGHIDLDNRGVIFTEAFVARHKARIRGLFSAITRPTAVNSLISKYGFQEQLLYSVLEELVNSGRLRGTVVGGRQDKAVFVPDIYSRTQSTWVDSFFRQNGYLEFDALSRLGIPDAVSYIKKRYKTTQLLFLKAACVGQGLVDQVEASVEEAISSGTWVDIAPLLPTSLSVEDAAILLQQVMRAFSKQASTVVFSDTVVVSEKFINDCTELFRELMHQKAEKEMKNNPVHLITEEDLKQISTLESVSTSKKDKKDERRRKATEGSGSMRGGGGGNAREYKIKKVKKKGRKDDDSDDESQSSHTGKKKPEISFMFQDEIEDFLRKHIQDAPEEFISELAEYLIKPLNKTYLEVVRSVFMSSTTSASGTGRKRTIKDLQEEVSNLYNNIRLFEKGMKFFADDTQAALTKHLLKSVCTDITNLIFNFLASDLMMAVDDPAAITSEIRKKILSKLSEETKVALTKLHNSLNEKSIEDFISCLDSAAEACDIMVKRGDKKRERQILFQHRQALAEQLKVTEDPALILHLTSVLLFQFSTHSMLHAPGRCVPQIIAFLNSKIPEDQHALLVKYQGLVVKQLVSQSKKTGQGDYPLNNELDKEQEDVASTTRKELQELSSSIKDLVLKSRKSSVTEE
UniProt Q92890: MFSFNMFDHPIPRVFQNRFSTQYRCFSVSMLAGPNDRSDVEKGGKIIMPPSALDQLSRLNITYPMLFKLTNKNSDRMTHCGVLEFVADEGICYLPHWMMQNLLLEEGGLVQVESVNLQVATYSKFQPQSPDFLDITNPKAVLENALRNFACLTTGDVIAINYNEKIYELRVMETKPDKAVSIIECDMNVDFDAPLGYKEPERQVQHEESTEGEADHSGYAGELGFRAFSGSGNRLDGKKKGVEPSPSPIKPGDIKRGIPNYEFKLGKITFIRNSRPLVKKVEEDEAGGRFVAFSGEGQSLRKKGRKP
UniProt P22695: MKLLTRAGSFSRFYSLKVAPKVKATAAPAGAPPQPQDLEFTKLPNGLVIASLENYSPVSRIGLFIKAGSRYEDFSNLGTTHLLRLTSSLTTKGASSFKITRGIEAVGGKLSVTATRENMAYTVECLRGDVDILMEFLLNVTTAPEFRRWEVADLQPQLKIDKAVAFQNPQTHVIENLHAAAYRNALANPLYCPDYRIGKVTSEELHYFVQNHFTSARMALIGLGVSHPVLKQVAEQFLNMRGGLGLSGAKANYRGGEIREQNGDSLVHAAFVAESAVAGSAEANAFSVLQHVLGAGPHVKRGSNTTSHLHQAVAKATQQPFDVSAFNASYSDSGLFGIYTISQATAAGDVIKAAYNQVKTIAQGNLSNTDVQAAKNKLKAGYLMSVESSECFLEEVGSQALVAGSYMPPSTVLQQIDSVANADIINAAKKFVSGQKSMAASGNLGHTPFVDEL
UniProt Q9HAU5: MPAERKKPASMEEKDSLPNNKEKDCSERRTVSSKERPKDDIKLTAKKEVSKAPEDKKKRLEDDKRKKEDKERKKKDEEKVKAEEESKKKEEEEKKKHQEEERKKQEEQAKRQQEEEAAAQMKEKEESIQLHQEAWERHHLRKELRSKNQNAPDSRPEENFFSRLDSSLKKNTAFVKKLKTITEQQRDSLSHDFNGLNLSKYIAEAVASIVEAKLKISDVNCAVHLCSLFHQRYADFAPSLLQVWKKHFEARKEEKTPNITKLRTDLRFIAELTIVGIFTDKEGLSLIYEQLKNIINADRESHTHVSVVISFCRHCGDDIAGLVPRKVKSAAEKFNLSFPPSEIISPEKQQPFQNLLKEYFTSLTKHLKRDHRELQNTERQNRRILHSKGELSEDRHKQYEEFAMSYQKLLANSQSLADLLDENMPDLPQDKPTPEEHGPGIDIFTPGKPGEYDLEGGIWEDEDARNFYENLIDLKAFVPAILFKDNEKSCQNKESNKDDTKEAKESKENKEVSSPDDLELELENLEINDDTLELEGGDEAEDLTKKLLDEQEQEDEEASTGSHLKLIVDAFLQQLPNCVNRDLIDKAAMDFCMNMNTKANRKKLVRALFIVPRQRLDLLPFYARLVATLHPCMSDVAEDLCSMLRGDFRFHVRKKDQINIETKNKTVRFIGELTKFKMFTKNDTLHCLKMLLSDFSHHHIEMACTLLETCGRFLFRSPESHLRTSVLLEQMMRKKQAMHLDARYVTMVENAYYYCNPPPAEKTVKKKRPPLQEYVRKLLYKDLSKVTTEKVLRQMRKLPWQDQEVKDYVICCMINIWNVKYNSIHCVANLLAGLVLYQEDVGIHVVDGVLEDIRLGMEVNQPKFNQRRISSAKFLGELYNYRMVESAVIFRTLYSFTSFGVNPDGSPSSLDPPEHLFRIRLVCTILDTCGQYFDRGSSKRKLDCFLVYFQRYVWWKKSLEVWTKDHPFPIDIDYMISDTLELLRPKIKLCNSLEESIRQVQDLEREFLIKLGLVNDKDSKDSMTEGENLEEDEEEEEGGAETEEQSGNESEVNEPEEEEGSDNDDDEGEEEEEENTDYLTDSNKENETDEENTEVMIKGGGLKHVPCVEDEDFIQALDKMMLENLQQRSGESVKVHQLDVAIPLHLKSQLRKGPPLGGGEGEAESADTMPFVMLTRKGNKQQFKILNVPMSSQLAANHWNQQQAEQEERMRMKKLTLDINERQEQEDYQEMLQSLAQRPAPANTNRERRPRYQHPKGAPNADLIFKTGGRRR
UniProt Q9BV40: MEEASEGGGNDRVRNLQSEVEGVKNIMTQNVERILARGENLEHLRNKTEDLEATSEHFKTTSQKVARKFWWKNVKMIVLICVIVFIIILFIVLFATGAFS

Key:
Assay in all cases: log2 fold change, soluble protein after heating vs DMSO (PISA); higher = thermal stabilisation; K562 lysate, 10 uM; active = over 0.2 and 3.5 SD of the protein, either way, in both replicates (recomputed)
vemurafenib = compound: CCCS(=O)(=O)Nc1ccc(F)c(C(=O)c2c[nH]c3ncc(-c4ccc(Cl)cc4)cc23)c1F [vemurafenib]
Outline: (§1)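 K562 pellets were dounce-homogenised in PBS pH 7.4 with 1 mM MgCl2, and the crude extract at 1 mg/mL protein was treated with 10 μM compound for 30 min. Aliquots were heated for 3 min across 48°C-58°C, pooled, and brought to 0.5% NP-40 at 4°C; soluble protein was the supernatant after 21,000xg for 90 min. Soluble protein was quantified by TMTpro 16plex LC-MS/MS with channel sums equalised, and reported as log2 fold change in thermal stability against DMSO controls, with values from duplicates.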

[1] = compound: CCCS(=O)(=O)Nc1ccc(F)c(C(=O)c2c[nH]c3ncc(Cl)cc23)c1F
Outline: as §1

barasertib = compound: CCN(CCCOc1ccc2c(Nc3cc(CC(=O)Nc4cccc(F)c4)[nH]n3)ncnc2c1)CCOP(=O)(O)O [barasertib]
Outline: as §1

[2] = compound: CC[C@@H]1C(=O)N(C)c2cnc(Nc3ccc(C(=O)NC4CCN(C)CC4)cc3OC)nc2N1C1CCCC1
Outline: as §1

volasertib = compound: CC[C@@H]1C(=O)N(C)c2cnc(Nc3ccc(C(=O)N[C@H]4CC[C@H](N5CCN(CC6CC6)CC5)CC4)cc3OC)nc2N1C(C)C [volasertib]
Outline: as §1

[3] = compound: CCn1c(C(=O)N(C2CC2)C2CC2)cc2c3c(ncn3C)c(Nc3cc(C)n(C)n3)nc21
Outline: as §1

[4] = compound: CCn1cc(-c2ccnc3[nH]c(-c4cccc(CN(C)C)c4)cc23)c(-c2ccc(NC(=O)N(C)C)cc2)n1
Outline: as §1

[5] = compound: CN1CCC(CNc2ccc3ncc(-c4cccc(OC(F)(F)F)c4)n3n2)CC1
Outline: as §1

saracatinib = compound: CN1CCN(CCOc2cc(OC3CCOCC3)c3c(Nc4c(Cl)ccc5c4OCO5)ncnc3c2)CC1 [saracatinib]
Outline: as §1

sotrastaurin = compound: CN1CCN(c2nc(C3=C(c4c[nH]c5ccccc45)C(=O)NC3=O)c3ccccc3n2)CC1 [sotrastaurin]
Outline: as §1

alvocidib = compound: CN1CC[C@H](c2c(O)cc(O)c3c(=O)cc(-c4ccccc4Cl)oc23)[C@H](O)C1 [alvocidib]
Outline: as §1

Tubastatin A = compound: CN1CCc2c(c3ccccc3n2Cc2ccc(C(=O)NO)cc2)C1 [Tubastatin A]
Outline: as §1

[6] = compound: CNC(=O)C1=CC=CC=C1NC2=NC(=NC=C2Cl)NC3=C(C=C(C=C3)N4CCOCC4)OC
Outline: as §1

defactinib = compound: CNC(=O)c1ccc(Nc2ncc(C(F)(F)F)c(NCc3nccnc3N(C)S(C)(=O)=O)n2)cc1 [defactinib]
Outline: as §1

[7] = compound: CNc1nc(-c2ccc3c(N)n[nH]c3c2)cc(N2C[C@@H](C(=O)NC3CCCCC3)CC[C@H]2C)n1
Outline: as §1

encorafenib = compound: COC(=O)N[C@@H](C)CNc1nccc(-c2cn(C(C)C)nc2-c2cc(Cl)cc(NS(C)(=O)=O)c2F)n1 [encorafenib]
Outline: as §1

[8] = compound: COC(=O)[C@H](CCSC)NC(=O)C1=C(C=C(C=C1)NC[C@H](CS)N)C2=CC=CC=C2
Outline: as §1

alisertib = compound: COc1cc(Nc2ncc3c(n2)-c2ccc(Cl)cc2C(c2c(F)cccc2OC)=NC3)ccc1C(=O)O [alisertib]
Outline: as §1

[9] = compound: COc1cc2nc(-c3cc(F)ccc3O)nc(N[C@@H]3CNC[C@H]3C(C)(C)O)c2cc1OC
Outline: as §1

gefitinib = compound: COc1cc2ncnc(Nc3ccc(F)c(Cl)c3)c2cc1OCCCN1CCOCC1 [gefitinib]
Outline: as §1

Measured: log2 fold change

UROS (UniProt P10746)
inactive: vemurafenib -0.024 | [1] -0.002 | barasertib 0.057 | [2] -0.056 | volasertib -0.05 | [3] 0.05 | [4] 0.061 | [5] -0.021 | saracatinib -0.008 | sotrastaurin -0.023 | alvocidib -0.01 | Tubastatin A -0.008 | [6] -0.019 | defactinib 0.022 | [7] -0.085 | encorafenib 0.014 | [8] -0.074 | alisertib -0.071 | [9] -0.027 | gefitinib -0.094

VAPB (UniProt O95292)
inactive: vemurafenib -0.009 | [1] -0.006 | barasertib -0.025 | [2] 0.058 | volasertib 0.013 | [3] 0.037 | [4] -0.071 | [5] 0.047 | saracatinib 0.02 | sotrastaurin 0.025 | alvocidib -0.018 | Tubastatin A 0.015 | [6] -0.01 | defactinib -0.014 | [7] -0.015 | encorafenib 0.046 | [8] -0.18 | alisertib 0.003 | [9] 0.008 | gefitinib 0.003

VASP (UniProt P50552)
inactive: vemurafenib -0.012 | [1] -0.011 | barasertib -0.069 | [2] -0.022 | volasertib -0.008 | [3] 0.009 | [4] 0.006 | [5] -0.009 | saracatinib 0.007 | sotrastaurin -0.004 | alvocidib 0.031 | Tubastatin A 0.022 | [6] -0.017 | defactinib 0.013 | [7] -0.003 | encorafenib -0.033 | [8] -0.007 | alisertib 0.018 | [9] 0.009 | gefitinib 0.019

Copied from the entries so far (2 entries):
UROS (UniProt P10746)
inactive: vemurafenib -0.024 | [1] -0.002 | barasertib 0.057 | [2] -0.056 | volasertib -0.05 | [3] 0.05 | [4] 0.061 | [5] -0.021 | saracatinib -0.008 | sotrastaurin -0.023 | alvocidib -0.01 | Tubastatin A -0.008 | [6] -0.019 | defactinib 0.022 | [7] -0.085 | encorafenib 0.014 | [8] -0.074 | alisertib -0.071 | [9] -0.027 | gefitinib -0.094

VAPB (UniProt O95292)
inactive: vemurafenib -0.009 | [1] -0.006 | barasertib -0.025 | [2] 0.058 | volasertib 0.013 | [3] 0.037 | [4] -0.071 | [5] 0.047 | saracatinib 0.02 | sotrastaurin 0.025 | alvocidib -0.018 | Tubastatin A 0.015 | [6] -0.01 | defactinib -0.014 | [7] -0.015 | encorafenib 0.046 | [8] -0.18 | alisertib 0.003 | [9] 0.008 | gefitinib 0.003

Next entries:

UTP15 (UniProt Q8TED0)
inactive: vemurafenib 0.036 | [1] 0.005 | barasertib 0.039 | [2] -0.038 | volasertib -0.04 | [3] -0.003 | [4] -0.03 | [5] -0.012 | saracatinib 0.052 | sotrastaurin 0.002 | alvocidib 0.001 | Tubastatin A 0.008 | [6] 0.088 | defactinib 0.026 | [7] -0.027 | encorafenib 0.009 | [8] -0.032 | alisertib -0.023 | [9] 0.006 | gefitinib 0.015

USO1 isoform 2 (UniProt O60763)
inactive: vemurafenib -0.007 | [1] -0.017 | barasertib -0.008 | [2] 0.018 | volasertib 0.012 | [3] -0.011 | [4] 0.007 | [5] -0.007 | saracatinib -0.005 | sotrastaurin 0.018 | alvocidib -0.002 | Tubastatin A 0.038 | [6] 0 | defactinib -0.007 | [7] -0.003 | encorafenib 0.008 | [8] -0.014 | alisertib 0.004 | [9] 0.013 | gefitinib 0.011

UFC1 (UniProt Q9Y3C8)
inactive: vemurafenib 0.015 | [1] -0.007 | barasertib 0.051 | [2] 0.033 | volasertib 0.015 | [3] 0.02 | [4] 0.094 | [5] -0.021 | saracatinib -0.016 | sotrastaurin -0.002 | alvocidib 0.008 | Tubastatin A 0.058 | [6] -0.05 | defactinib -0.057 | [7] -0.016 | encorafenib -0.057 | [8] 0.033 | alisertib 0.007 | [9] 0.006 | gefitinib -0.005

USP13 (UniProt Q92995)
inactive: vemurafenib -0.025 | [1] -0.023 | barasertib -0.004 | [2] 0.024 | volasertib 0.018 | [3] -0.003 | [4] 0.006 | [5] 0.047 | saracatinib 0.021 | sotrastaurin -0.023 | alvocidib 0.008 | Tubastatin A 0.085 | [6] 0.016 | defactinib 0.029 | [7] 0.087 | encorafenib 0.002 | [8] -0.02 | alisertib -0.047 | [9] -0.025 | gefitinib -0.004

USP25 (UniProt Q9UHP3)
inactive: vemurafenib -0.043 | [1] -0.012 | barasertib 0.011 | [2] 0.025 | volasertib -0.016 | [3] 0.03 | [4] 0.022 | [5] -0.021 | saracatinib 0.005 | sotrastaurin 0.024 | alvocidib 0.004 | Tubastatin A -0.031 | [6] -0.017 | defactinib -0.018 | [7] -0.087 | encorafenib 0.012 | [8] 0.014 | alisertib -0.006 | [9] 0.018 | gefitinib 0.002

UNC119B (UniProt A6NIH7)
inactive: vemurafenib 0.079 | [1] 0.013 | barasertib 0.038 | [2] 0.171 | volasertib 0.001 | [3] -0.018 | [4] -0.1 | [5] 0.054 | saracatinib -0.048 | sotrastaurin 0.001 | alvocidib -0.016 | Tubastatin A 0.217 | [6] -0.033 | defactinib -0.09 | [7] 0.08 | encorafenib 0.021 | [8] 0.011 | alisertib -0.077 | [9] -0.041 | gefitinib -0.065

UFL1 (UniProt O94874)
inactive: vemurafenib -0.017 | [1] 0.009 | barasertib 0.022 | [2] -0.001 | volasertib -0.026 | [3] 0.032 | [4] -0.158 | [5] -0.017 | saracatinib 0.003 | sotrastaurin 0.012 | alvocidib 0.011 | Tubastatin A 0.025 | [6] -0.017 | defactinib 0.023 | [7] -0.05 | encorafenib 0.023 | [8] 0.078 | alisertib 0.005 | [9] 0.026 | gefitinib 0

UFD1 isoform 1 (UniProt Q92890)
inactive: vemurafenib -0.031 | [1] -0.001 | barasertib -0.029 | [2] 0.112 | volasertib 0.03 | [3] -0.019 | [4] -0.01 | [5] 0.025 | saracatinib -0.047 | sotrastaurin -0.018 | alvocidib -0.025 | Tubastatin A 0.086 | [6] 0.014 | defactinib 0.019 | [7] 0.058 | encorafenib 0.05 | [8] -0.034 | alisertib 0.017 | [9] 0.022 | gefitinib 0.054

UQCRC2 (UniProt P22695)
inactive: vemurafenib -0.016 | [1] 0.01 | barasertib -0.018 | [2] 0.026 | volasertib 0.01 | [3] -0.015 | [4] 0.034 | [5] -0.003 | saracatinib 0.002 | sotrastaurin -0.02 | alvocidib -0.005 | Tubastatin A 0.035 | [6] -0.013 | defactinib 0.014 | [7] 0.01 | encorafenib -0.001 | [8] -0.013 | alisertib 0.022 | [9] 0.024 | gefitinib -0.013

UPF2 (UniProt Q9HAU5)
inactive: vemurafenib 0.003 | [1] 0.01 | barasertib 0.009 | [2] -0.033 | volasertib -0.026 | [3] 0.015 | [4] -0.037 | [5] -0.001 | saracatinib 0.001 | sotrastaurin 0.003 | alvocidib -0.008 | Tubastatin A -0.04 | [6] 0.024 | defactinib -0.007 | [7] -0.035 | encorafenib -0.014 | [8] 0.005 | alisertib 0.034 | [9] -0.023 | gefitinib -0.004

VAMP8 (UniProt Q9BV40)
inactive: vemurafenib -0.003 | [1] -0.008 | barasertib 0.064 | [2] 0.035 | volasertib 0.047 | [3] -0.013 | [4] 0.014 | [5] 0 | saracatinib -0.01 | sotrastaurin 0.019 | alvocidib -0.032 | Tubastatin A 0.06 | [6] -0.006 | defactinib 0.012 | [7] -0.02 | encorafenib 0.023 | [8] -0.039 | alisertib -0.016 | [9] 0.005 | gefitinib -0.006

USP48 isoform 8 (UniProt Q86UV5)
inactive: vemurafenib -0.002 | [1] 0.036 | barasertib 0.002 | [2] -0.013 | volasertib -0.043 | [3] 0.007 | [4] -0.011 | [5] -0.032 | saracatinib -0.004 | sotrastaurin 0.031 | alvocidib 0.006 | Tubastatin A -0.119 | [6] 0.019 | defactinib -0.012 | [7] 0.011 | encorafenib -0.003 | [8] 0.14 | alisertib -0.016 | [9] 0.003 | gefitinib -0.018
